From publication PMC10883933 come the findings set out here.

These are yes or no findings as the source states them, for the method shown. In cells and extracts the contact can be indirect. Some binding calls cover weakened binding; strength is not graded here. For some assays here: Sequences can lack the tags named with a protein.

The target in experiment [1] is T1, ZNF598 (co-IP of Fig. S6b) (UniProt Q86UK7).
T1 sequence: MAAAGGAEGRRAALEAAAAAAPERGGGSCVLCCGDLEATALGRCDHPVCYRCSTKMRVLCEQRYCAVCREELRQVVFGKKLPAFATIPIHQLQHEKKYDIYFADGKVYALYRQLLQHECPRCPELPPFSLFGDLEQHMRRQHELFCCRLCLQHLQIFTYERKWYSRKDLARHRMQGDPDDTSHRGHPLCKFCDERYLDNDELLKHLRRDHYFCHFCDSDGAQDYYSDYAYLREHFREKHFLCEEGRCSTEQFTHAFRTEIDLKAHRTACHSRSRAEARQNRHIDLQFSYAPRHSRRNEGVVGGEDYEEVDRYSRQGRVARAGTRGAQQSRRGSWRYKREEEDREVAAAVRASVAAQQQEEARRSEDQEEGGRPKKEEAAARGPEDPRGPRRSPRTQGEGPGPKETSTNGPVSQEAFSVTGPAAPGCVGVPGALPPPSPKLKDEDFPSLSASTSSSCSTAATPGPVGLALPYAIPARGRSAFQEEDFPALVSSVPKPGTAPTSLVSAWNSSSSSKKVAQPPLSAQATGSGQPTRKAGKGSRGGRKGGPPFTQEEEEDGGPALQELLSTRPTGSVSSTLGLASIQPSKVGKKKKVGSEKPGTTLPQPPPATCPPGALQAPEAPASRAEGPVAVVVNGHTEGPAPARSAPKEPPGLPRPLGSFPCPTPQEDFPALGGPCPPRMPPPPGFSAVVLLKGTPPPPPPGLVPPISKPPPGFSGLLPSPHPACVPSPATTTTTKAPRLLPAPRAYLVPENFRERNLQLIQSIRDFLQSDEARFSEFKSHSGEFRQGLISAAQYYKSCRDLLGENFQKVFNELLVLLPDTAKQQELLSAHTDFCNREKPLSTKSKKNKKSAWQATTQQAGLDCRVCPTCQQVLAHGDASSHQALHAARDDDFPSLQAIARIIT
The experiment is described as follows: co-IP; co-IP of CNOT4 and ZNF598 (Fig. S6b); bait and tags not given.

The target in experiment [2] is ZNF598 (co-transfected as GFP-ZNF598 and ZNF598-FLAG) (UniProt Q86UK7). The experiment is described as follows: co-IP; cells co-transfected with GFP-ZNF598 and ZNF598-FLAG; immunoprecipitation and Western blot (Fig. 6b). (In general: Immunoblotting shows a protein as a band on a membrane.)

B1: CNOT4 (co-IP of Fig. S6b) (enzyme, UniProt O95628 1-575)
chain: MSRSPDAKEDPVECPLCMEPLEIDDINFFPCTCGYQICRFCWHRIRTDENGLCPACRKPYPEDPAVYKPLSQEELQRIKNEKKQKQNERKQKISENRKHLASVRVVQKNLVFVVGLSQRLADPEVLKRPEYFGKFGKIHKVVINNSTSYAGSQGPSASAYVTYIRSEDALRAIQCVNNVVVDGRTLKASLGTTKYCSYFLKNMQCPKPDCMYLHELGDEAASFTKEEMQAGKHQEYEQKLLQELYKLNPNFLQLSTGSVDKNKNKVTPLQRYDTPIDKPSDSLSIGNGDNSQQISNSDTPSPPPGLSKSNPVIPISSSNHSARSPFEGAVTESQSLFSDNFRHPNPIPSGLPPFPSSPQTSSDWPTAPEPQSLFTSETIPVSSSTDWQAAFGFGSSKQPEDDLGFDPFDVTRKALADLIEKELSVQDQPSLSPTSLQNSSSHTTTAKGPGSGFLHPAAATNANSLNSTFSVLPQRFPQFQQHRAVYNSFSFPGQAARYPWMAFPRNSIMHLNHTANPTSNSNFLDLNLPPQHNTGLGGIPVAGEEEVKVSTMPLSTSSHSLQQGQQPTSLHTTVA
Regarding B1, in experiment [1], the binding result is “binds”.

B2: ZNF598 (co-transfected as GFP-ZNF598 and ZNF598-FLAG) (enzyme, UniProt Q86UK7 1-904)
chain: T1 sequence
As to B2, the binding result in experiment [2] is “binds”.
